Experimental findings from article PMC9681084, “MYB44-ENAP1/2 restricts HDT4 to regulate drought tolerance in Arabidopsis” (PLOS Genetics, 2022) are described below.

In this assay the target is MYB44 N-terminus (Arabidopsis). As to the kind of experiment: two-hybrid; AD (pEXPAD502) and BD (pDBLeu) vector pairs co-transformed to yeast strain AH109; growth on SD/-Trp-Leu-His with 3'AT.

No constants are given. Whether binding was seen depends on the method and setting. Binding calls can cover weak binding; strength is not graded here. Tags and fused reporters may be left off the sequences shown.

B1: MBP-ENAP1 (natural protein, Arabidopsis, UniProt Q8VZI9 1-249, looked up)
chain: METTPETQSKTHRLPAGREDWWSEDATATLIEAWGDRYVNLNRGNLRQNDWKEVADAVNSSHGNGRPKTDVQCKNRIDTLKKKYKTEKAKPLSNWCFFDRLDFLIGPVMKKSSGAVVKSALMNPNLNPTGSKSTGSSLDDDDDDDDDDEEDDDDAGDWGFVVRKHRKVEDVDSSEGSAFRELARSILKLGEAFERIEGKKQQMMIELEKQRMEVAKELELQRMNMLMEMQLELEKSKLGKRRAASGKKL
notes: ENAP1, Arabidopsis, AT3G11100; the CDS ligated to pVP13 (His tag removed); source: E. coli, purified (Amylose resin)
Regarding B1, the binding entry is “binds”.
